These are yes or no findings as the source states them, for the method shown. In cells and extracts the contact can be indirect. Some entries that bind do so weakly or less than the wild type.
Target: T1, TRIM67 (endogenous, mouse) (mouse (endogenous in embryonic cortex)) (UniProt Q505D9)
T1 sequence: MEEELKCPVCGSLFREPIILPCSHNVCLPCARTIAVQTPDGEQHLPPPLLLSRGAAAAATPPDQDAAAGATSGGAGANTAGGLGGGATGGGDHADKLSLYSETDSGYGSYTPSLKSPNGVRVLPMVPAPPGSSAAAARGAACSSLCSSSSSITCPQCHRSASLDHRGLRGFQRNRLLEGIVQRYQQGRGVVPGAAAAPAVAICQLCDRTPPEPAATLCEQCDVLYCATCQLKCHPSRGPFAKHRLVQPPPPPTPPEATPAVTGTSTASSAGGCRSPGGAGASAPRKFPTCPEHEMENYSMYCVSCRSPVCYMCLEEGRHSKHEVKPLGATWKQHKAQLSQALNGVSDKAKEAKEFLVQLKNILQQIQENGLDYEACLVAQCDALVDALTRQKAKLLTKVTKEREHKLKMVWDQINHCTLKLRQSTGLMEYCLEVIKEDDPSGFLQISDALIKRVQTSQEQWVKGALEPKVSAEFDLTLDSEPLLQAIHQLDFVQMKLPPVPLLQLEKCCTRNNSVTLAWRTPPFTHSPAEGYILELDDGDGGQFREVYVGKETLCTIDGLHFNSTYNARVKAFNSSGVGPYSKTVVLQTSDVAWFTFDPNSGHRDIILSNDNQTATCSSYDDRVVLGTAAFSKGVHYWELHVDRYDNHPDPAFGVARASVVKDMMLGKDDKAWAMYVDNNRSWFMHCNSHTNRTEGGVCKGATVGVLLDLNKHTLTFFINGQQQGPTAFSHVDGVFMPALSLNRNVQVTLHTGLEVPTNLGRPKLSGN
Assay: co-IP; immunoprecipitation with the TRIM67 polyclonal antibody from wild-type mouse embryonic cortical / brain lysate; Trim67-/- lysate as control; blots probed for TRIM9, TRIM67 and DCC

Protein sequences, listed by entry. Tags and fused reporters are not part of them. Residues count along the entry.
UniProt P70211, residues 26-1447: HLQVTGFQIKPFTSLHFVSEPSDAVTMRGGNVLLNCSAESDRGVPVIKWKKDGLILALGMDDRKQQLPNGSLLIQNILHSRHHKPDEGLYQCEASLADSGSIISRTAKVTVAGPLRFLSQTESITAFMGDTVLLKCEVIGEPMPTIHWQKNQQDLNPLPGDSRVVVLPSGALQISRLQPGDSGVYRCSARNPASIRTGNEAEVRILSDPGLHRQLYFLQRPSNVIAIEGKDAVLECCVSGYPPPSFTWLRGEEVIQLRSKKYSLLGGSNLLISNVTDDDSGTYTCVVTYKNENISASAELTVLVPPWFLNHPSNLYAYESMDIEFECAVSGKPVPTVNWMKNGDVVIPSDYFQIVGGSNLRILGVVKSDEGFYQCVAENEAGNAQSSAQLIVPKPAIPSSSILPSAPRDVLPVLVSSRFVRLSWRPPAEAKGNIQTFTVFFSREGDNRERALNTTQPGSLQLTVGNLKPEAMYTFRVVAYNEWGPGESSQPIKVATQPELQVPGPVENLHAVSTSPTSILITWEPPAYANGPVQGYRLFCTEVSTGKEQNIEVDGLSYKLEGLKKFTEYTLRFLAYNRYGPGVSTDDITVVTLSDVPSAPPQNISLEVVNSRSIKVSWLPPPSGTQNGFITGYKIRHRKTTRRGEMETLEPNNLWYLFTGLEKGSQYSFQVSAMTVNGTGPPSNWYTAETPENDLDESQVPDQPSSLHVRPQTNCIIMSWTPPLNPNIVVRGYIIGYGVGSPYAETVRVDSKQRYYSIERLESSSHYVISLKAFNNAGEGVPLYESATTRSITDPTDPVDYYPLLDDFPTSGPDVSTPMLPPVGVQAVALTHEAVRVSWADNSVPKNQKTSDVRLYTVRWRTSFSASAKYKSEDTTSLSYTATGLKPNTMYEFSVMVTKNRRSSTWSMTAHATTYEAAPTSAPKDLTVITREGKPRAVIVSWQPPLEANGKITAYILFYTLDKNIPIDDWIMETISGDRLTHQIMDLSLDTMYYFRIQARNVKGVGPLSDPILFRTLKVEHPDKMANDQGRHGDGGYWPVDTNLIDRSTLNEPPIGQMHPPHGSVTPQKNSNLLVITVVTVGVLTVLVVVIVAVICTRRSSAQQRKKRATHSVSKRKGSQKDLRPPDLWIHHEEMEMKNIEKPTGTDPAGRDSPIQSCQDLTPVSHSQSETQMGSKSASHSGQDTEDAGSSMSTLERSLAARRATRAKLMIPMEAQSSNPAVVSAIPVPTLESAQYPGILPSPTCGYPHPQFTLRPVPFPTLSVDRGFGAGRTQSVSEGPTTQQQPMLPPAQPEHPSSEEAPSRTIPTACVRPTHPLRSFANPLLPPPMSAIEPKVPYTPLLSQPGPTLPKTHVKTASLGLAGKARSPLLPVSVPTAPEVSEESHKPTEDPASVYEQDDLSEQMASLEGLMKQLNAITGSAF

binding: binds
Substance: DCC (endogenous, mouse) (from UniProt P70211 26-1447) (receptor)

Reference: paper PMC6002264
